The values that follow come from article PMC10269713.

Where a protein sequence is shown, tags need not be part of it.

This data set concerns the target T1, His6-Fis (UniProt P0A6R4).
T1 sequence (looked up, limits assumed): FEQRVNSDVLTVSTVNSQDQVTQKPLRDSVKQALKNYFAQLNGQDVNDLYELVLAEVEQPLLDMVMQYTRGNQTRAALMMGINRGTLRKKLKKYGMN
Nature of the data set: EMSA. The conditions noted are these: shift at 0.25 pmol Fis with 0.3 pmol probe in 10 uL, 20 mM Tris pH 7.5, 50 mM KCl, 1 mM DTT, 10% glycerol, 20 min at room temperature, 5% native acrylamide gel in TBE at 4 C, recombinant protein, protein details: N-terminal His6 (pQE80L), label: none (post-stained, Novel Green Plus), probe letters rebuilt from the primers and the genome. In general terms: In EMSA bound probe runs differently from free probe, usually more slowly.

Regarding “GCGGCGGCCGCTCACTTGATTGCGAGTCGCGAGTTTTCATTGTTATCCCTCTGAAGTTCGTTTTTTACCATTTAGCCATAGTAAAAACATGAATTGTTTGATTTCGCGCATATTCGCTCATAATTCGAAAGTGAAACGTGATTTCATGCGTCATTCTGAACATTTCAACCATCGTATTTAATAATGTGTGCGGTAATTCACATTTAATTTATGAATGTTTTCTTAACATCGCGGCAACTCAAGAAACGGCAGGTTCTCCCACGGAATCAGGCTGTTAATCATAAATAAGACCACGGGCCACGGAGGCTTTCAAAGCTTCGC (double strand) [glpT upstream region probe]”, the binding result is “binds”.
